Here are results for 15 molecules from paper doi:10.1101/2025.03.06.641037.

Protein sequences, listed by entry. Tags and fused reporters are not part of them.
UniProt Q9H9B1: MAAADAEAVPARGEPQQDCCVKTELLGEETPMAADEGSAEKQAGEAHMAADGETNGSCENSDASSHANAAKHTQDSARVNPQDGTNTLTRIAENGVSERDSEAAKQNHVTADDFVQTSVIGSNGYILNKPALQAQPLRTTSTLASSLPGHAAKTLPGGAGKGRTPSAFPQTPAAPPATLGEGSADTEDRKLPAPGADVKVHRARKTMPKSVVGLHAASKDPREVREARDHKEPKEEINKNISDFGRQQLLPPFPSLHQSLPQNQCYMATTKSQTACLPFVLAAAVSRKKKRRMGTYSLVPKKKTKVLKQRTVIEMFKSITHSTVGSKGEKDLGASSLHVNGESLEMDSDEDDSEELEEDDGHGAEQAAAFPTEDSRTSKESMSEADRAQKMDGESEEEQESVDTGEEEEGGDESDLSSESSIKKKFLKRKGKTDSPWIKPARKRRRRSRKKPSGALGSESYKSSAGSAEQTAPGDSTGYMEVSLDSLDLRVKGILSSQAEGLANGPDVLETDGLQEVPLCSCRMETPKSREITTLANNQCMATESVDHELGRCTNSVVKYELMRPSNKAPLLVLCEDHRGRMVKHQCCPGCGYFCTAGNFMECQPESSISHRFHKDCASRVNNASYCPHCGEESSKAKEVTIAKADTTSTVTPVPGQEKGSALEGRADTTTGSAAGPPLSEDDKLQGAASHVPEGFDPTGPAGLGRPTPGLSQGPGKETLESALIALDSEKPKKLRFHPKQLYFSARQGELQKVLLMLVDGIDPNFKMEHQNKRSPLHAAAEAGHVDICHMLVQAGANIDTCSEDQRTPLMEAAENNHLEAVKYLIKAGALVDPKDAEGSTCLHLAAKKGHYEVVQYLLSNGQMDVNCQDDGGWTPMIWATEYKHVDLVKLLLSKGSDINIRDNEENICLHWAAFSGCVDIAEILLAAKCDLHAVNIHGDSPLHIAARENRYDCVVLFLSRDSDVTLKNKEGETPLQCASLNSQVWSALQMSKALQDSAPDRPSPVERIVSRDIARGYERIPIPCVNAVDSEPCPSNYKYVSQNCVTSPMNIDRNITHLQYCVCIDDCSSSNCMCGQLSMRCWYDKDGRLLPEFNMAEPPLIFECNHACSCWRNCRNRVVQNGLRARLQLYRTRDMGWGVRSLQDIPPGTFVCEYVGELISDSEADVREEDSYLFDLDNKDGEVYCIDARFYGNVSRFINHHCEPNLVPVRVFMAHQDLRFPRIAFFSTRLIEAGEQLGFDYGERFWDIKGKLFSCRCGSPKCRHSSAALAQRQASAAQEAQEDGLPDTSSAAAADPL
UniProt Q96KQ7: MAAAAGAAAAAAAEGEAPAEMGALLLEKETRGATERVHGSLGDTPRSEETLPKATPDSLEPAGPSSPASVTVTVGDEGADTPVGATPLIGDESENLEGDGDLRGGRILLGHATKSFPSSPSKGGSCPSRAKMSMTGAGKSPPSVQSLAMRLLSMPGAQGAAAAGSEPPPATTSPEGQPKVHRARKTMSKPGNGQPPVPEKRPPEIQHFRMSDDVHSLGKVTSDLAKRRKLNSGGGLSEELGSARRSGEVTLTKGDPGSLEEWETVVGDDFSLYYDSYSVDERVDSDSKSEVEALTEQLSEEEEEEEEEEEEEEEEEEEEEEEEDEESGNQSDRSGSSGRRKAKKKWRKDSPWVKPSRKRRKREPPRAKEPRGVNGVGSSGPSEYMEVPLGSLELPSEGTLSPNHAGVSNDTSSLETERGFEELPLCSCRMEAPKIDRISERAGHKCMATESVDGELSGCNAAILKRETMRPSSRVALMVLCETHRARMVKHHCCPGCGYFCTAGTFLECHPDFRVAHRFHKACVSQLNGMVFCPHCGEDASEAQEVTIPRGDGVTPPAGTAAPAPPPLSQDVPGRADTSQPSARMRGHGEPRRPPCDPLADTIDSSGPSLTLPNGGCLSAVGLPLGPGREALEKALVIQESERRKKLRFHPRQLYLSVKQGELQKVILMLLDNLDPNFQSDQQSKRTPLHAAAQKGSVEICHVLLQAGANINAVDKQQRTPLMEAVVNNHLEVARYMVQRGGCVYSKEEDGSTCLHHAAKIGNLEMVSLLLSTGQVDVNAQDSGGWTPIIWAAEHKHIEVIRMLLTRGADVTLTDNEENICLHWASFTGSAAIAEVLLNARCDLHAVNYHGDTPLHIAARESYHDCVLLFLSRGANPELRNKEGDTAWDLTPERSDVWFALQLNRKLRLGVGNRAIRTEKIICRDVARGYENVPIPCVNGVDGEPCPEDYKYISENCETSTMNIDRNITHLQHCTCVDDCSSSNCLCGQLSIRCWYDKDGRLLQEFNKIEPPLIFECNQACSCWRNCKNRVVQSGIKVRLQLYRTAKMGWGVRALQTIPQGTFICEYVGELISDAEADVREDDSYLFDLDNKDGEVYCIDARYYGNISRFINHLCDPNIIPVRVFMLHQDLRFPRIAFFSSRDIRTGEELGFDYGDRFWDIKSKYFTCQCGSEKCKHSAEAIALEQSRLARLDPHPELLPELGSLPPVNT
UniProt P78347: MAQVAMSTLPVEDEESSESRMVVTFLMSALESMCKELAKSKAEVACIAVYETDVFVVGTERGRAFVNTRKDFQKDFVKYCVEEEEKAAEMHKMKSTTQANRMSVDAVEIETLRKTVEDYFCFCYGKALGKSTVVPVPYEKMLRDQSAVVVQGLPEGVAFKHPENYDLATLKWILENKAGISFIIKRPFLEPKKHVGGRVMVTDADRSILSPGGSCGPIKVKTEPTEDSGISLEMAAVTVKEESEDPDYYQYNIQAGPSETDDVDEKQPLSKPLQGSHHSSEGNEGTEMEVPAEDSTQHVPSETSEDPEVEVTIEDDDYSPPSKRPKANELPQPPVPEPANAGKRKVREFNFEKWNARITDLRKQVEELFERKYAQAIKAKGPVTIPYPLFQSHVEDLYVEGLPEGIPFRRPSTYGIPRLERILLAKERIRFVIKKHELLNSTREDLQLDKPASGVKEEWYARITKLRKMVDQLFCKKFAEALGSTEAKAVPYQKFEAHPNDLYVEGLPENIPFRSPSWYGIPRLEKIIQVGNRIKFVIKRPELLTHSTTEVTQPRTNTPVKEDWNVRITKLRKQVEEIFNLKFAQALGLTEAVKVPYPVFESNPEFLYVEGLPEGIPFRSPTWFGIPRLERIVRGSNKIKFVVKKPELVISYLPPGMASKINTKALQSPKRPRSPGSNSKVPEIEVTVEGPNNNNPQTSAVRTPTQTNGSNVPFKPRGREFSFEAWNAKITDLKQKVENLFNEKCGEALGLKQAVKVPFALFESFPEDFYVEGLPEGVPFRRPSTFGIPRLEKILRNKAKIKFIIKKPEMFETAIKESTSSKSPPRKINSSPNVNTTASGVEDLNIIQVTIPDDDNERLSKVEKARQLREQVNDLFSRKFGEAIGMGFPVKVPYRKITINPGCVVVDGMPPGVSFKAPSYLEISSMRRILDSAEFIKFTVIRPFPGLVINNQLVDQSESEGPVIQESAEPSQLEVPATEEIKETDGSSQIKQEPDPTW
UniProt Q13185: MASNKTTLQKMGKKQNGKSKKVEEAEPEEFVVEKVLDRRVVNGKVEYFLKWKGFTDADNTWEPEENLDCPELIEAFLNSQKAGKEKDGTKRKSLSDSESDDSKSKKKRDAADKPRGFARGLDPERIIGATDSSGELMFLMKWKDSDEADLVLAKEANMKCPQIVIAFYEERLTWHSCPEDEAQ
UniProt Q8IZL8: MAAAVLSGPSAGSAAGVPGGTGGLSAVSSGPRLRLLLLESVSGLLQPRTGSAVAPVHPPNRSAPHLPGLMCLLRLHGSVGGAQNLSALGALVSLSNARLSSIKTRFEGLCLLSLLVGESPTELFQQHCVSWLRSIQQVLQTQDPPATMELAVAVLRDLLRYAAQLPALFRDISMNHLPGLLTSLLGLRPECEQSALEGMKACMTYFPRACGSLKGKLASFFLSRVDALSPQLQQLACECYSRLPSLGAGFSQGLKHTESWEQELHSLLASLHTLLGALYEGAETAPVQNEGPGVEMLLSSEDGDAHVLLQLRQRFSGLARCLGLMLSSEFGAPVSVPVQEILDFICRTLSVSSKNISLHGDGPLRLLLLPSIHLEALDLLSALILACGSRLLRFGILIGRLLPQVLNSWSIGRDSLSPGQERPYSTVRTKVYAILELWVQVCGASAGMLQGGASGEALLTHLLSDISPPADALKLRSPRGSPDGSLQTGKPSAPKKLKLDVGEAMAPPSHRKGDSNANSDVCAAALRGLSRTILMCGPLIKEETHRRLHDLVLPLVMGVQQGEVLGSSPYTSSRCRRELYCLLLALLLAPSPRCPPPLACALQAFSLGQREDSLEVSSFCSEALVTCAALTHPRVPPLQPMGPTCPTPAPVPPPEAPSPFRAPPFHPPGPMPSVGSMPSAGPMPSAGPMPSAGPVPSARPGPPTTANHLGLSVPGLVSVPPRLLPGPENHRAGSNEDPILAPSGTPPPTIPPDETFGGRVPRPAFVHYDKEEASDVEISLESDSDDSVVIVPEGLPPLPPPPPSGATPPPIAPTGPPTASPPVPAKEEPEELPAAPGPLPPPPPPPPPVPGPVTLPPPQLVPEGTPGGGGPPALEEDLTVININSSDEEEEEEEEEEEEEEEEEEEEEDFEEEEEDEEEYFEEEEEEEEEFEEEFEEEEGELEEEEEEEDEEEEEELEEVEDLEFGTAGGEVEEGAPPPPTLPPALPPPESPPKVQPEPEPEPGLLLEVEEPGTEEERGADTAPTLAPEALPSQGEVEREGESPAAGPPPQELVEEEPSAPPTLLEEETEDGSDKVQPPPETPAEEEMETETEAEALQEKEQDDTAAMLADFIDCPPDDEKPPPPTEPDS
UniProt Q5VZL5: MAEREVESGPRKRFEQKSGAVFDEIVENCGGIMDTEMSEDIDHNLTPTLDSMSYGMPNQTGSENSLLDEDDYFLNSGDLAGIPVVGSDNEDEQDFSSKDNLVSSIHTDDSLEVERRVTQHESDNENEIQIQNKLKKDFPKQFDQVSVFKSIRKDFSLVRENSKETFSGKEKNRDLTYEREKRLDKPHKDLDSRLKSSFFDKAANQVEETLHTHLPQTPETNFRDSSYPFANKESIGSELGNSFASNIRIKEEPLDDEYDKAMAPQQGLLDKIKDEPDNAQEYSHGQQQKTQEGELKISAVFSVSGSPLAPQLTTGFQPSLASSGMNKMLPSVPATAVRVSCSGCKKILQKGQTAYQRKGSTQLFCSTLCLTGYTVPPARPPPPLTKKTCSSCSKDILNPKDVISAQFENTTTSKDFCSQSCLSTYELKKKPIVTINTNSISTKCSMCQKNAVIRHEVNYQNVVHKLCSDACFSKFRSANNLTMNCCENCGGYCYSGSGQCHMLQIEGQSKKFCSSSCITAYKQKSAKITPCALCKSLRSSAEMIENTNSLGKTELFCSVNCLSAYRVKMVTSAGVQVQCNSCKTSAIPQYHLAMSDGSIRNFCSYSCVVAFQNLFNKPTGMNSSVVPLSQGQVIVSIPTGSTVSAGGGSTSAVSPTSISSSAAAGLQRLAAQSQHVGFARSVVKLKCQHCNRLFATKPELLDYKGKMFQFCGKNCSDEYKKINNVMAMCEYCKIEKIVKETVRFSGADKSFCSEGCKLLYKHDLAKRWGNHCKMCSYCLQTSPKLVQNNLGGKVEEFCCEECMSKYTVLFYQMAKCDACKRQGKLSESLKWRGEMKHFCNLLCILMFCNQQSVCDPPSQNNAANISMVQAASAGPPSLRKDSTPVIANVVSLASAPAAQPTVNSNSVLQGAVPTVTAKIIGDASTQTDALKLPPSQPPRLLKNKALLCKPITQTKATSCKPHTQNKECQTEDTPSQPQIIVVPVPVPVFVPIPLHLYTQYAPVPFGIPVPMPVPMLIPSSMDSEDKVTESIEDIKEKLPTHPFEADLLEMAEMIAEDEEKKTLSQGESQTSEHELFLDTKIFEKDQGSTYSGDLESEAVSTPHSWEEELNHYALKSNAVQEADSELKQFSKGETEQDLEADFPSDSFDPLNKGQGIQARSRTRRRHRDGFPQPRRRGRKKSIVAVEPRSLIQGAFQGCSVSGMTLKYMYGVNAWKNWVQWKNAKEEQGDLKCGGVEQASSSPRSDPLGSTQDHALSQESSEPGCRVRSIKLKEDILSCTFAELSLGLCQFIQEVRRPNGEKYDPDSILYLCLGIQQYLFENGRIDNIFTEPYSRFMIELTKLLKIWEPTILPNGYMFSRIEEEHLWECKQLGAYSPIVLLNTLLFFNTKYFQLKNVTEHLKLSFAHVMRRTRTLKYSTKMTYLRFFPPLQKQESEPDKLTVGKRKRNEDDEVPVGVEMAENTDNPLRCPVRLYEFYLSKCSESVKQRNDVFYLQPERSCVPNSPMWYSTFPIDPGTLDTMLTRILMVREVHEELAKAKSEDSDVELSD

These are yes or no findings as the source states them, for the method shown. In cells and extracts the contact can be indirect. A yes stands for co-enrichment or nearness to the bait. Other partners may have been found. Where a sequence is shown, tags or fusion partners need not be part of it.

To fix the notation:
T1: F2V5-ADNP (Activity-Dependent Neuroprotective Protein, endogenously tagged) (human (endogenous in H9-derived hNSCs)) (UniProt Q9H2P0)
T1 sequence: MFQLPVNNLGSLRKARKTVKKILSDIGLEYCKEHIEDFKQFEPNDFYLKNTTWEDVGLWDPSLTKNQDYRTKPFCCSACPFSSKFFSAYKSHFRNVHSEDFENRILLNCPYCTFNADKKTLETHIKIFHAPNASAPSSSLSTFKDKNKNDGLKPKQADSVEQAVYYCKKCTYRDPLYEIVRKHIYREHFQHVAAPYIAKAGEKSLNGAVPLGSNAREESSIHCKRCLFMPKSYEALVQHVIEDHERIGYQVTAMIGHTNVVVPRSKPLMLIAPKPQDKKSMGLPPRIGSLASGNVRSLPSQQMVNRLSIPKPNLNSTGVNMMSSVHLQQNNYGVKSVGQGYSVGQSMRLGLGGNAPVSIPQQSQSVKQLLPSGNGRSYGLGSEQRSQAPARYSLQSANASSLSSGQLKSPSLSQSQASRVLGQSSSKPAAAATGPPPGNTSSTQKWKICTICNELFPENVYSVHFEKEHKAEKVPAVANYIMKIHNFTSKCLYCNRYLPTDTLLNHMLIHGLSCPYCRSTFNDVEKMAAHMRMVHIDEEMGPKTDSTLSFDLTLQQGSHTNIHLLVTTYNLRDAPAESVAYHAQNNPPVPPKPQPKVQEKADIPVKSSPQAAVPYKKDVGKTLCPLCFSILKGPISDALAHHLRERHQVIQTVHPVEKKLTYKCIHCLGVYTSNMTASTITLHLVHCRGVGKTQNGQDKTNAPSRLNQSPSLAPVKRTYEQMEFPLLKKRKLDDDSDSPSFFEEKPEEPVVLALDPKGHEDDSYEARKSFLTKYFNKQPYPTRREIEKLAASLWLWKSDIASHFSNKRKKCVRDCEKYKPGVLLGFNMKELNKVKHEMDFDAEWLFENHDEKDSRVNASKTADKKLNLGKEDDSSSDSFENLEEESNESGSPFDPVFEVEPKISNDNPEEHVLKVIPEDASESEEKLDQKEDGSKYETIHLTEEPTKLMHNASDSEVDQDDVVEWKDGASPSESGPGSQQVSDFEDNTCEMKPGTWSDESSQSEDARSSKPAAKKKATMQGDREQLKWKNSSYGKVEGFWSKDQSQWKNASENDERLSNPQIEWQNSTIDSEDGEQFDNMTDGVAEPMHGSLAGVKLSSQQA

B1: TEX10 (protein, UniProt Q9NXF1 1-929)
chain: MTKKRKRQHDFQKVKLKVGKKKPKLQNATPTNFKTKTIHLPEQLKEDGTLPTNNRKLNIKDLLSQMHHYNAGVKQSALLGLKDLLSQYPFIIDAHLSNILSEVTAVFTDKDANVRLAAVQLLQFLAPKIRAEQISPFFPLVSAHLSSAMTHITEGIQEDSLKVLDILLEQYPALITGRSSILLKNFVELISHQQLSKGLINRDRSQSWILSVNPNRRLTSQQWRLKVLVRLSKFLQALADGSSRLRESEGLQEQKENPHATSNSIFINWKEHANDQQHIQVYENGGSQPNVSSQFRLRYLVGGLSGVDEGLSSTENLKGFIEIIIPLLIECWVEAVPPQLATPVGNGIEREPLQVMQQVLNIISLLWKLSKQQDETHKLESWLRKNYLIDFKHHFMSRFPYVLKEITKHKRKEPNKSIKHCTVLSNNIDHLLLNLTLSDIMVSLANASTLQKDCSWIEMIRKFVTETLEDGSRLNSKQLNRLLGVSWRLMQIQPNREDTETLIKAVYTLYQQRGLILPVRTLLLKFFSKIYQTEELRSCRFRYRSKVLSRWLAGLPLQLAHLGSRNPELSTQLIDIIHTAAARANKELLKSLQATALRIYDPQEGAVVVLPADSQQRLVQLVYFLPSLPADLLSRLSRCCIMGRLSSSLAAMLIGILHMRSSFSGWKYSAKDWLMSDVDYFSFLFSTLTGFSKEELTWLQSLRGVPHVIQTQLSPVLLYLTDLDQFLHHWDVTEAVFHSLLVIPARSQNFDILQSAISKHLVGLTVIPDSTAGCVFGVICKLLDHTCVVSETLLPFLASCCYSLLYFLLTIEKGEAEHLRKRDKLWGVCVSILALLPRVLRLMLQSLRVNRVGPEELPVVGQLLRLLLQHAPLRTHMLTNAILVQQIIKNITTLKSGSVQEQWLTDLHYCFNVYITGHPQGPSALATVY
B2: ZNF644 (protein, UniProt Q9H582 1-1327)
chain: MRSFLQQDVNKTKSRLNVLNGLANNMDDLKINTDITGAKEELLDDNNFISDKESGVHKPKDCQTSFQKNNTLTLPEELSKDKSENALSGGQSSLFIHAGAPTVSSENFILPKGAAVNGPVSHSSLTKTSNMNKGSVSLTTGQPVDQPTTESCSTLKVAADLQLSTPQKASQHQVLFLLSDVAHAKNPTHSNKKLPTSASVGCDIQNSVGSNIKSDGTLINQVEVGEDGEDLLVKDDCVNTVTGISSGTDGFRSENDTNWDPQKEFIQFLMTNEETVDKAPPHSKIGLEKKRKRKMDVSKITRYTEDCFSDSNCVPNKSKMQEVDFLEQNEELQAVDSQKYALSKVKPESTDEDLESVDAFQHLIYNPDKCGEESSPVHTSTFLSNTLKKKCEESDSESPATFSTEEPSFYPCTKCNVNFREKKHLHRHMMYHLDGNSHFRHLNVPRPYACRECGRTFRDRNSLLKHMIIHQERRQKLMEEIRELKELQDEGRSARLQCPQCVFGTNCPKTFVQHAKTHEKDKRYYCCEECNFMAVTENELECHRGIAHGAVVKCPMVTSDIAQRKTQKKTFMKDSVVGSSKKSATYICKMCPFTTSAKSVLKKHTEYLHSSSCVDSFGSPLGLDKRKNDILEEPVDSDSTKTLTKQQSTTFPKNSALKQDVKRTFGSTSQSSSFSKIHKRPHRIQKARKSIAQSGVNMCNQNSSPHKNVTIKSSVDQKPKYFHQAAKEKSNAKANSHYLYRHKYENYRMIKKSGESYPVHFKKEEASSLNSLHLFSSSSNSHNNFISDPHKPDAKRPESFKDHRRVAVKRVIKESKKESSVGGEDLDSYPDFLHKMTVVVLQKLNSAEKKDSYETEDESSWDNVELGDYTTQAIEDETYSDINQEHVNLFPLFKSKVEGQEPGENATLSYDQNDGFYFEYYEDTGSNNFLHEIHDPQHLETADASLSKHSSVFHWTDLSLEKKSCPYCPATFETGVGLSNHVRGHLHRAGLSYEARHVVSPEQIATSDKMQHFKRTGTGTPVKRVRKAIEKSETTSEHTCQLCGGWFDTKIGLSNHVRGHLKRLGKTKWDAHKSPICVLNEMMQNEEKYEKILKALNSRRIIPRPFVAQKLASSDDFISQNVIPLEAYRNGLKTEALSVSASEEEGLNFLNEYDETKPELPSGKKNQSLTLIELLKNKRMGEERNSAISPQKIHNQTARKRFVQKCVLPLNEDSPLMYQPQKMDLTMHSALDCKQKKSRSRSGSKKKMLTLPHGADEVYILRCRFCGLVFRGPLSVQEDWIKHLQRHIVNANLPRTGAGMVEVTSLLKKPASITETSFSLLMAEAAS
B3: LAS1L (protein, UniProt Q9Y4W2 1-734)
chain: MSWESGAGPGLGSQGMDLVWSAWYGKCVKGKGSLPLSAHGIVVAWLSRAEWDQVTVYLFCDDHKLQRYALNRITVWRSRSGNELPLAVASTADLIRCKLLDVTGGLGTDELRLLYGMALVRFVNLISERKTKFAKVPLKCLAQEVNIPDWIVDLRHELTHKKMPHINDCRRGCYFVLDWLQKTYWCRQLENSLRETWELEEFREGIEEEDQEEDKNIVVDDITEQKPEPQDDGKSTESDVKADGDSKGSEEVDSHCKKALSHKELYERARELLVSYEEEQFTVLEKFRYLPKAIKAWNNPSPRVECVLAELKGVTCENREAVLDAFLDDGFLVPTFEQLAALQIEYEDGQTEVQRGEGTDPKSHKNVDLNDVLVPKPFSQFWQPLLRGLHSQNFTQALLERMLSELPALGISGIRPTYILRWTVELIVANTKTGRNARRFSAGQWEARRGWRLFNCSASLDWPRMVESCLGSPCWASPQLLRIIFKAMGQGLPDEEQEKLLRICSIYTQSGENSLVQEGSEASPIGKSPYTLDSLYWSVKPASSSFGSEAKAQQQEEQGSVNDVKEEEKEEKEVLPDQVEEEEENDDQEEEEEDEDDEDDEEEDRMEVGPFSTGQESPTAENARLLAQKRGALQGSAWQVSSEDVRWDTFPLGRMPGQTEDPAELMLENYDTMYLLDQPVLEQRLEPSTCKTDTLGLSCGVGSGNCSNSSSSNFEGLLWSQGQLHGLKTGLQLF
B4: WDR18 (protein, UniProt Q9BV38 1-432)
chain: MAAPMEVAVCTDSAAPMWSCIVWELHSGANLLTYRGGQAGPRGLALLNGEYLLAAQLGKNYISAWELQRKDQLQQKIMCPGPVTCLTASPNGLYVLAGVAESIHLWEVSTGNLLVILSRHYQDVSCLQFTGDSSHFISGGKDCLVLVWSLCSVLQADPSRIPAPRHVWSHHALPITDLHCGFGGPLARVATSSLDQTVKLWEVSSGELLLSVLFDVSIMAVTMDLAEHHMFCGGSEGSIFQVDLFTWPGQRERSFHPEQDAGKVFKGHRNQVTCLSVSTDGSVLLSGSHDETVRLWDVQSKQCIRTVALKGPVTNAAILLAPVSMLSSDFRPSLPLPHFNKHLLGAEHGDEPRHGGLTLRLGLHQQGSEPSYLDRTEQLQAVLCSTMEKSVLGGQDQLRVRVTELEDEVRNLRKINRDLFDFSTRFITRPAK

The assay has as its target T1, F2V5-ADNP (Activity-Dependent Neuroprotective Protein, endogenously tagged) (human (endogenous in H9-derived hNSCs)). As to the kind of experiment: affinity purification with mass spectrometry.
Turning to ATRX (from UniProt P46100 1-2492), the binding result is “binds”. As for DAXX (from UniProt Q9UER7 1-740), the binding entry is reported as “binds”. Take EHMT1 (from UniProt Q9H9B1 1-1298): the binding result was “binds”.

For EHMT2 (from UniProt Q96KQ7 1-1210), the binding entry is “binds”. Take GTF2I (from UniProt P78347 1-998): the binding result was “binds”. With HP1γ (from UniProt Q13185 1-183), the binding result is recorded as “binds”.

In the case of PELP1 (from UniProt Q8IZL8 1-1130), the binding result is on record as “binds”. For RCOR1 (from UniProt Q9UKL0 1-485), the binding entry is “binds”. On to RCOR2 (from UniProt Q8IZ40 1-523), for which the binding entry is listed as “binds”. As for WIZ (from UniProt O95785 1-1651), the entry is “binds”; as for ZMYM4 (from UniProt Q5VZL5 1-1548), “binds”.

B1: the binding entry is “binds”. With B2, the binding entry is on record as “binds”. Take B3: the binding result is reported as “binds”.

B4: the binding result is “binds”.
